# Screening data, single-dose tests

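Growth of Mycobacterium tuberculosis over 4 days (cholesterol / DPPC medium with tyloxapol); the read-out is not stated. Compounds at 500 µM. Higher reads as more growth inhibition (inferred: compounds with an IC50 in retests scored well above the rest). About 18,000 compounds were tested under these conditions; 5% (about 900) showed 50% or more at least once.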

Each number is a percent effect as filed.
How 0% and 100% were set is not recorded. Most values in the screen are low, and negative values occur.
Compounds were drawn at random from those tested, without regard to their results.

{"structure": "NC(c1cncc(Br)c1)C1CC1", "stereo": "stereo unspecified", "percent effect": 19.48}
{"structure": "COCCN(Cc1cccs1)C(=O)CC1CCNC1", "stereo": "stereo unspecified", "percent effect": 20.88}
{"structure": "Cc1nncc(CN)c1C", "percent effect": -13.87}
{"structure": "CC(C)Cc1cc(CNCC2(O)CCCNC2)on1", "stereo": "stereo unspecified", "percent effect": 16.06}
{"structure": "NCCC1(O)C(=O)Nc2ccccc21", "stereo": "stereo unspecified", "percent effect": 5.439}
{"structure": "c1c[nH]c(CC2CCNCC2)n1", "percent effect": -8.992}
{"structure": "CSCc1ccc(C(=O)N2CC(CC(N)=O)C2)cc1", "percent effect": 2.804}
{"structure": "CNC(=O)C1CCCN1Cc1cccc(N(C)C)c1", "stereo": "stereo unspecified", "percent effect": 16.34}
{"structure": "COc1ccc(-n2c(C)n[nH]c2=O)cc1Cl", "percent effect": 3.887}
{"structure": "CCOc1ncccc1C(=O)N1CCC(COC)C1", "stereo": "stereo unspecified", "percent effect": -8.411}
{"structure": "Cc1c(Cl)cnn1C(C)C(N)=O", "stereo": "stereo unspecified", "percent effect": 6.158}
{"structure": "Cc1noc(C(C)C)c1C(=O)Nc1ccccn1", "percent effect": -10.34}
{"structure": "CO[C@@H]1COCC[C@H]1NC(=O)CCc1ccc(O)cc1", "percent effect": -0.8488}
{"structure": "Cc1n[nH]c(C)c1CN(C)Cc1ccncc1", "percent effect": -9.993}
{"structure": "O=C(NCC[S+]([O-])c1ccccc1)c1cccnc1O", "stereo": "stereo unspecified", "percent effect": 8.997}
{"structure": "Cc1cccc(OCC(O)CNc2ncccc2F)c1", "stereo": "stereo unspecified", "percent effect": 71.35}
{"structure": "CC(=O)c1ccncn1", "percent effect": -8.366}
{"structure": "CCN(CC1CCCO1)C(=O)NCC(F)F", "stereo": "stereo unspecified", "percent effect": -4}
{"structure": "Cc1n[nH]cc1NC(=O)NCC(c1cccs1)N(C)C", "stereo": "stereo unspecified", "percent effect": 4.155}
{"structure": "COCc1ncc(CO)s1", "percent effect": -4.998}
{"structure": "CC1CN(C(=O)c2cnsn2)c2cccc(Cl)c2O1", "stereo": "stereo unspecified", "percent effect": 0.218}
{"structure": "CN1CCOC(C(=O)N(C)Cc2cccc(O)c2)C1", "stereo": "stereo unspecified", "percent effect": -1.066}
{"structure": "CC1CN(C)CCN1CC(=O)NCc1cccs1", "stereo": "stereo unspecified", "percent effect": 8.815}
{"structure": "Cc1cc(NC(N)=O)c2ncccc2c1", "percent effect": -3.388}
{"structure": "Cc1ccc(NC(=O)NC(C)(CO)CO)cc1Br", "percent effect": 0.6745}
{"structure": "Cc1ccc(NC(=O)N2CCC(O)C2)cc1OC(F)F", "stereo": "stereo unspecified", "percent effect": 18.81}
{"structure": "Cc1nc(C(=O)OCCn2cccn2)cs1", "percent effect": 12.49}
{"structure": "CCC(NC(=O)c1ccc(C)c(O)c1)[C@H]1C[C@H](O)C1", "stereo": "stereo partly specified", "percent effect": -4.709}
{"structure": "Cc1cccc(CCNC(=O)C2=NN(C)C(=O)CC2)c1", "percent effect": 5.411}
{"structure": "O=C(Nc1nc(-c2cccs2)ns1)C1CCCN1", "stereo": "stereo unspecified", "percent effect": 10.14}
{"structure": "CCOCCOCCNC", "percent effect": -2.269}
{"structure": "NCC1CCN(C(=O)Cc2ccccc2)C1", "stereo": "stereo unspecified", "percent effect": 26.37}
{"structure": "CC(=O)c1cc(C(=O)NCc2cnc(C)cn2)cs1", "percent effect": 1.973}
{"structure": "CNC(=O)CN1CCN(Cc2cncn2C(C)C)CC1", "percent effect": -4.821}
{"structure": "C[C@@]1(O)CCN(C(=O)COCc2ccccc2)C[C@@H]1O", "percent effect": -17.39}
{"structure": "Cc1cc(C(=O)NN2CCOCC2)c(C)o1", "percent effect": 13.17}
{"structure": "Cc1nc(N)ncc1C(=O)NC(C)c1cn(C)nc1C", "stereo": "stereo unspecified", "percent effect": -11.81}
{"structure": "CN(CC(=O)NC(N)=O)Cc1ccc(C(F)(F)F)cc1", "percent effect": -24.75}
{"structure": "CS(=O)(=O)CCN(CC(O)c1ccccc1)C1CC1", "stereo": "stereo unspecified", "percent effect": -14.5}
{"structure": "O=C(CCC(=O)c1cccs1)NC1CCCCNC1=O", "stereo": "stereo unspecified", "percent effect": -6.236}
{"structure": "O=C(c1ccc(N2CCOCC2)c(F)c1)N1CCCC1", "percent effect": -4.073}
{"structure": "CCOc1cccc(Cn2cnc(CC)cc2=O)n1", "percent effect": 61.19}
{"structure": "CS(=O)(=O)NCCCc1cnc2ccccc2c1", "percent effect": 5.427}
{"structure": "Cc1ccc(S(=O)(=O)NCC(C)(C)N)c2cccnc12", "percent effect": 5.849}
{"structure": "CC(=O)Nc1cnn(CC2CCCO2)c1", "stereo": "stereo unspecified", "percent effect": -15.69}
{"structure": "CC(=O)NCCCOCC1CCCO1", "stereo": "stereo unspecified", "percent effect": 1.282}
{"structure": "Cc1[nH]ncc1S(=O)(=O)N1CCOC(C)C1", "stereo": "stereo unspecified", "percent effect": -5.829}
{"structure": "CCc1nc(CCNC(=O)CN2CCC(O)CC2)cs1", "percent effect": -2.326}
{"structure": "N#Cc1ccccc1OCC(=O)NC(=O)c1ccco1", "percent effect": 0.6337}
{"structure": "CCCc1nnc(NC(=O)C2CC2)s1", "percent effect": 7.158}
{"structure": "NCC(O)c1ccc(Cl)s1", "stereo": "stereo unspecified", "percent effect": 67.59}
{"structure": "NCCN(Cc1ccncc1)Cc1ccncc1", "percent effect": -0.1691}
{"structure": "CCN1CCC(NC(=O)c2ccc3c(c2)OCO3)CC1", "percent effect": -7.435}
{"structure": "CC(C)CCC(=O)NCc1ccnc(N(C)C)c1", "percent effect": 15.36}
{"structure": "CN(CC1CCC1)C(=O)NC1CCC2(CC1)OCCO2", "percent effect": 25.62}

The last 4 entries again:

structure	percent effect
NCCN(Cc1ccncc1)Cc1ccncc1	-0.1691
CCN1CCC(NC(=O)c2ccc3c(c2)OCO3)CC1	-7.435
CC(C)CCC(=O)NCc1ccnc(N(C)C)c1	15.36
CN(CC1CCC1)C(=O)NC1CCC2(CC1)OCCO2	25.62

Source: ChEMBL document CHEMBL3988442, “University of Dundee, Small-Polar-MMV Screening Library” (2021).